Results on one molecule are retold here after article PMC8871863, “Initiator-Directed Transcription: Fission Yeast Nmtl Initiator Directs Preinitiation Complex Formation and Transcriptional Initiation” (Genes, 2022).

These are yes or no findings as the source states them, for the method shown. Some results given as binding are weak or reduced against the parent protein; the word gives no strength. Where a sequence is shown, tags or fusion partners need not be part of it.

The target in the experiment is T1, TAP-tagged Med7 (fission yeast (S. pombe)) (UniProt O60104).
T1 sequence: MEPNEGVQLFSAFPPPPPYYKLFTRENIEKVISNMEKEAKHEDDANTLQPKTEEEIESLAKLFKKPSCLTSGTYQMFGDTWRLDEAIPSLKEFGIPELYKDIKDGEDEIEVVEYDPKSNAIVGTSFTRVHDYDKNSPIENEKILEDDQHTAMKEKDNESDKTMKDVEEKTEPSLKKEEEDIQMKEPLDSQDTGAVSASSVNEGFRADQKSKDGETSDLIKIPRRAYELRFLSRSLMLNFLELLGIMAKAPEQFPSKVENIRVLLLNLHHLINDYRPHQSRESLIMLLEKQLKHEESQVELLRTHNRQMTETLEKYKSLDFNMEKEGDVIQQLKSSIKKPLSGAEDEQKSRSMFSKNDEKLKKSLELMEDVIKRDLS
Put plainly: depletion of extract on IgG-Sepharose, Western blot of the depleted extract; whole-cell extract of the TAP-tagged Med7 strain at 0.5 M potassium acetate, IgG-Sepharose, 30 min at room temperature then 2 h at 4 °C; supernatant blotted. (A western blot detects proteins with antibodies after separation by electrophoresis.)

B1: Med17 (protein, UniProt P87306 1-545)
chain: MAEEANKDADISSLSLSLDPEIIGGQNNFLENNLQQIFQKIIQERGPFRDLKEEDLQKELQKESIKDESSAKSSETENVLEFATLDSKRNVNDTEVESMDSQAYKKELIEQIMIAQTECSLALDMTSLLLSKFKENSIETISPFLKSTVPPSSLQFSRSQPPESKESDATLAKCWKEKSLTSSCKFLFEAKERLTSVVETEHEYYTELVKVKEASWPLFNSQGSNHLSVQYSCLGGISLGLGLIRMKPESKSFEVQSSLLYSQAALKISILNKDRDEIGSSTWSWPSQNCNSVLLKDIYKLQEILFEMDIWNSLLQEAQSCGNQGVNFTGDEILVPISDDHVVRITLETSSKNTESGFTEDKKSNEDTSTNFVTIKQEKELLKCLCDTLNAIAHILFLKHCRKSDRRSQQPELYMAIDANAPLILRPLIFYYNLNQESLEFQRWLKQRDISFKFMPNYPWEKAKDFLELENSLSINRLSISWRIMVSNFEPAIFIQHTPTLHGTDKSVWRCKDQYSSNQFSSLKNVCQYIEHHINSLSRRSKKTE
For B1, the binding entry is listed as “binds”.
